From patent US20160201132A1, “GENE EXPRESSION BIOMARKERS OF LAQUINIMOD RESPONSIVENESS” (Teva Pharmaceutical Industries Ltd., priority 2013, published 2016)
Further values from the same series stand in other lists.

System: PBMC of RRMS patients
Assay: Gene expression microarray analysis (HG-U133A-2) of PBMC from RRMS patients treated with LAQ, ancillary study to ALLEGRO
Format: in vivo, human
From the text: The goal of this ancillary study was to characterize gene expression changes and corresponding biological mechanisms induced in PBMC of RRMS patients by LAQ treatment. According to ALLEGRO clinical trial inclusion criteria, 25 patients were randomly assigned to receive LAQ (n=13, age 38.8±2.3 years, female/male ratio: 8/5) or placebo (n=12, age 37.2±3.4 years, female/male ratio: 8/4).
Peripheral blood samples were obtained from RRMS patients at baseline before start of LAQ treatment or placebo, after 0, 1, 6 and 24 month of treatment (visit 0, 1, 6 and 7 according to ALLEGRO clinical trial protocol correspondently) for gene microarray analysis.
Briefly, 1) Peripheral blood mononuclear cells (PBMC) were obtained from RRMS patients that participated in ALLEGRO and were treated daily with 0.6 mg LAQ or placebo. PBMC were subjected for gene expression analysis (HU-133A-2-Affymatrix arrays) at baseline and at 1 and 6 months of LAQ treatment; 2) Data was analyzed by Partek Genomics Solution software. Most informative genes (MIGs) were defined as those that differentiated between groups with p<0.01. Gene functional annotation, enrichment and pathway analysis were performed by Ingenuity software. For each time point, genes that changed in placebo group were excluded from further analysis; and 3) Verification of LAQ related mechanism was performed by Western blot.
PBMC were extracted from 15 ml peripheral blood, separated by Ficoll-Hypaque gradient. Total RNA was extracted using both Trizol (Invitrogen, USA) and Phase-Lock-Gel columns (Eppendorf, Germany) including a DNase digestion step. RNA integrity was assessed by RNA Experion automated electrophoresis system (Bio-Rad Laboratories, Hercules, Calif.).
Probe synthesis using 3 μg total RNA, hybridization, detection, and scanning was performed according to the standard Affymetrix, Inc. USA protocols; cDNA was synthesized using the Two-Cycle cDNA Synthesis Kit (Affymetrix, Inc., USA), and in-vitro transcription performed with the GeneChip IVT Labeling Kit (Affymetrix, Inc., USA). The biotin-labeled IVT-RNA was hybridized to HG-U133A-2 arrays containing 18,400 gene transcripts, each corresponding to 14,500 well-annotated human genes, washed in a GeneChip Fluidics Station 450 (Hewlett Packard, USA, GeneArray-™ scanner G2500A) and scanned according to the manufacturer's protocol (Affymetrix, Inc., USA).
Data analysis was performed on Partek Genomics Solution software (www.partek.com; Partek Incorporated, St. Louis, Mo.). Expression values were computed from raw CEL files by applying the Robust Multi-Chip Average (RMA) background correction algorithm. RMA correction included: 1) values background correction; 2) quintile normalization; 3) log 2 transformation; and 4) median polish summarization. The ANOVA, Repeated Measures and correlation analysis implicated in Partek software ware applied to evaluate LAQ effects. Most informative genes MIGs were defined as those that differentiated between experimental groups with p<0.01. All p-values were calculated for False Discovery Rate (FDR) multiple test correction at p=0.05.
Additionally, significance of individual genes was tested by parametric T-test and non parametric Mann-Whitney test using Bootstrapping approach based on repeated permutations of the data with 5% FDR for multiple testing.
Gene functional annotation, enrichment, and pathway analyses to identify the leading biological pathways that operated under LAQ treatment were performed by Ingenuity Pathways Analysis software (www.ingenuity.com).
ANOVA analysis was used to compare PBMC gene expression after 1, 6 or 24 month of LAQ treatment with baseline gene expression.
For each time point inventors performed analysis source of variation in dataset. (FIG. 1). Age, gender and batch effects were considered as confounders regarding LAQ or Placebo related changes. For each time point genes associated with Placebo effect were evaluated and excluded from further analysis. […]

CCN(C(=O)c1c(O)c2c(Cl)cccc2n(C)c1=O)c1ccccc1 [LAQ, 5-chloro-N-ethyl-4-hydroxy-1-methyl-2-oxo-N-phenyl-1,2-dihydroquinoline-3-carboxamide]
Fold-Change (4.0 vs. 0.0) (gene MYH15, six months of treatment): −1.154
Fold-Change (4.0 vs. 0.0) (gene MYL10, after six months of LAQ): −1.247
Fold-Change (4.0 vs. 0.0) (gene MYO9B, after six months of LAQ): −1.279
Fold-Change (4.0 vs. 0.0) (gene MYOG, six months of treatment): −1.154
Fold-Change (4.0 vs. 0.0) (gene MYOZ2, PBMC, six months of LAQ treatment): −1.113
Fold-Change (4.0 vs. 0.0) (gene MYT1, six months of treatment): −1.148
Fold-Change (4.0 vs. 0.0) (gene NACA2): −1.177
Fold-Change (4.0 vs. 0.0) (gene NACAD, after six months of LAQ): −1.123
Fold-Change (4.0 vs. 0.0) (gene NAT8, after six months of LAQ): −1.14
Fold-Change (4.0 vs. 0.0) (gene NCAPH2, after six months of LAQ): −1.136
Fold-Change (4.0 vs. 0.0) (gene NCRNA00120, PBMC, six months of LAQ treatment): −1.118
Fold-Change (4.0 vs. 0.0) (gene NES, after six months of LAQ): −1.141
Fold-Change (4.0 vs. 0.0) (gene NFATC4, PBMC, six months of LAQ treatment): −1.112
Fold-Change (4.0 vs. 0.0) (gene NFIB, after six months of LAQ): −1.2706
Fold-Change (4.0 vs. 0.0) (gene NHLH1, after six months of LAQ): −1.305
Fold-Change (4.0 vs. 0.0) (gene NHLH2, after six months of LAQ): −1.123
Fold-Change (4.0 vs. 0.0) (gene NKX3-1, after six months of LAQ): −1.231
Fold-Change (4.0 vs. 0.0) (gene NPBWR2, six months of treatment): −1.159
Fold-Change (4.0 vs. 0.0) (gene NR1D1 /// THRA, after six months of LAQ): −1.129
Fold-Change (4.0 vs. 0.0) (gene NR5A2, after six months of LAQ): −1.135
Fold-Change (4.0 vs. 0.0) (gene NRIP2, PBMC, six months of LAQ treatment): −1.12
Fold-Change (4.0 vs. 0.0) (gene NRP2, after six months of LAQ): −1.129
Fold-Change (4.0 vs. 0.0) (gene NRXN1, six months of treatment): −1.15
Fold-Change (4.0 vs. 0.0) (gene NRXN2): −1.1914
Fold-Change (4.0 vs. 0.0) (gene NTF3): −1.186
Fold-Change (4.0 vs. 0.0) (gene NTS, PBMC, six months of LAQ treatment): −1.108
Fold-Change (4.0 vs. 0.0) (gene NUDT7, after six months of LAQ): −1.26
Fold-Change (4.0 vs. 0.0) (gene OBP2A /// OBP2B, after six months of LAQ): −1.141
Fold-Change (4.0 vs. 0.0) (gene OBSL1, six months of treatment): −1.152
Fold-Change (4.0 vs. 0.0) (gene OLAH, after six months of LAQ): −1.123
Fold-Change (4.0 vs. 0.0) (gene OR2F1 /// OR2F2, six months of treatment): −1.157
Fold-Change (4.0 vs. 0.0) (gene OR2H2, six months of treatment): −1.159
Fold-Change (4.0 vs. 0.0) (gene OR7A17, after six months of LAQ): −1.329
Fold-Change (4.0 vs. 0.0) (gene OR7E19P): −1.188
Fold-Change (4.0 vs. 0.0) (gene OR10H2, PBMC, six months of LAQ treatment): −1.116
Fold-Change (4.0 vs. 0.0) (gene OR10J1, six months of treatment): −1.159
Fold-Change (4.0 vs. 0.0) (gene OR52A1): −1.186
Fold-Change (4.0 vs. 0.0) (gene ORAI2): −1.186
Fold-Change (4.0 vs. 0.0) (gene OSBPL10, six months of treatment): −1.149
Fold-Change (4.0 vs. 0.0) (gene OSGIN2, after six months of LAQ): −1.134
Fold-Change (4.0 vs. 0.0) (gene OTOF, after six months of LAQ): −1.143
Fold-Change (4.0 vs. 0.0) (gene OTUB1, six months of treatment): −1.145
Fold-Change (4.0 vs. 0.0) (gene PAEP, six months of treatment): −1.158
Fold-Change (4.0 vs. 0.0) (gene PAH, PBMC, six months of LAQ treatment): −1.119
Fold-Change (4.0 vs. 0.0) (gene PAPOLA, after six months of LAQ): −1.2676
Fold-Change (4.0 vs. 0.0) (gene PAPPA, six months of treatment): −1.145
Fold-Change (4.0 vs. 0.0) (gene PARK2, after six months of LAQ): −1.139
Fold-Change (4.0 vs. 0.0) (gene PAX2, six months of treatment): −1.151
Fold-Change (4.0 vs. 0.0) (gene PAX3): −1.177
Fold-Change (4.0 vs. 0.0) (gene PCDH11Y, PBMC, six months of LAQ treatment): −1.121
Fold-Change (4.0 vs. 0.0) (gene PCDHA10, six months of treatment): −1.145
Fold-Change (4.0 vs. 0.0) (gene PCDHB3, six months of treatment): −1.148
Fold-Change (4.0 vs. 0.0) (gene PCDHGA3, after six months of LAQ): −1.137
Fold-Change (4.0 vs. 0.0) (gene PCNXL2, six months of treatment): −1.144
Fold-Change (4.0 vs. 0.0) (gene PDCD6, six months of treatment): −1.16
Fold-Change (4.0 vs. 0.0) (gene PDE6G, after six months of LAQ): −1.138
Fold-Change (4.0 vs. 0.0) (gene PDE10A, six months of treatment): −1.16
Fold-Change (4.0 vs. 0.0) (gene PDE12, six months of treatment): −1.159
Fold-Change (4.0 vs. 0.0) (gene PDIA2, after six months of LAQ): −1.229
Fold-Change (4.0 vs. 0.0) (gene PDLIM4): −1.188
Fold-Change (4.0 vs. 0.0) (gene PDLIM4, after six months of LAQ): −1.144
Fold-Change (4.0 vs. 0.0) (gene PDLIM7, after six months of LAQ): −1.347
Fold-Change (4.0 vs. 0.0) (gene PENK, after six months of LAQ): −1.236
Fold-Change (4.0 vs. 0.0) (gene PGAM2, six months of treatment): −1.16
Fold-Change (4.0 vs. 0.0) (gene PGK2, six months of treatment): −1.157
Fold-Change (4.0 vs. 0.0) (gene PHLDA3, six months of treatment): −1.158
Fold-Change (4.0 vs. 0.0) (gene PHLDB1): −1.1913
Fold-Change (4.0 vs. 0.0) (gene PID1, PBMC, six months of LAQ treatment): 1.652
Fold-Change (4.0 vs. 0.0) (gene PIR, after six months of LAQ): −1.129
Fold-Change (4.0 vs. 0.0) (gene PITX3, after six months of LAQ): −1.229
Fold-Change (4.0 vs. 0.0) (gene PKNOX2, after six months of LAQ): −1.237
Fold-Change (4.0 vs. 0.0) (gene PLA1A, after six months of LAQ): −1.274
Fold-Change (4.0 vs. 0.0) (gene PLA2G6, after six months of LAQ): −1.14
Fold-Change (4.0 vs. 0.0) (gene PLA2R1, after six months of LAQ): −1.129
Fold-Change (4.0 vs. 0.0) (gene PLAT, six months of treatment): −1.157
Fold-Change (4.0 vs. 0.0) (gene PLCB4): −1.195
Fold-Change (4.0 vs. 0.0) (gene PLK4, after six months of LAQ): −1.23
Fold-Change (4.0 vs. 0.0) (gene PLOD2, after six months of LAQ): −1.307
Fold-Change (4.0 vs. 0.0) (gene PLVAP): −1.195
Fold-Change (4.0 vs. 0.0) (gene PLXNA1): −1.1951
Fold-Change (4.0 vs. 0.0) (gene PLXNB1): −1.193
Fold-Change (4.0 vs. 0.0) (gene PMS2L4): −1.1883
